According to patent US20260306434A1, “VERY LONG CHAIN FATTY ACIDS FOR USE IN MINERALIZATION” (Epax Norway AS, priority 2023, published 2026):
“Also recorded” adds a separate entry of the source. At least one compound was matched to its structure with a doubt left.

Key:
Type in all cases: cell-based
[1] = test system: hFOB 1.19 human foetal osteoblasts; assay: qPCR of cell proliferation markers in hFOB 1.19 (Ex. 4); conditions: 2 μM; day 3; not significant
[2] = test system: hFOB 1.19 human foetal osteoblasts; assay: Cytokine quantitation of hFOB 1.19 growth medium (Ex. 4); conditions: 2 μM; vs control; not significant
[3] = test system: human dermal fibroblasts (ATCC PCS-201-012); assay: Gene expression analysis (qPCR) of human dermal fibroblasts in scratch assay (Ex. 2); conditions: 3 μM
[4] = test system: hFOB 1.19 human foetal osteoblasts; assay: qPCR of osteogenic differentiation markers in hFOB 1.19 (Ex. 4); conditions: 1 and 2 μM combined
[5] = means of three experiments, not significant

CC/C=C\C/C=C\C/C=C\C/C=C\C/C=C\C/C=C\CCC(=O)O [DHA, docosahexaenoic acid]
PCNA expression [1]: trend towards higher expression
IL-8 expression [2]: slight trend towards lower expression
ELOVL4 expression ([3]; 0 HPS (P=0.0110)): significantly downregulated
FGF2 expression ([3]; 0 HPS, vs control (P=0.0346)): significantly lower expression
IL8 expression ([3]; 0 HPS, vs control (P=0.0392)): significantly higher expression; also recorded: significant increase
BGLAP level ([4]; experiment 1, vs control): significantly higher levels
COL1A1 level ([4]; experiment 1, vs control): significantly higher levels
BGLAP level [4, 5]: slight trend of increased levels
COL1A1 level [4, 5]: slight trend of increased levels
